Laboratory results from PMC4686900.
Results are given in words; binding and its absence hold for the method and conditions named. Binding seen in cells or lysates may run through a third protein. Some entries that bind do so weakly or less than the wild type.

Amino acid sequences for entries named in this document (tags omitted).
UniProt O08586: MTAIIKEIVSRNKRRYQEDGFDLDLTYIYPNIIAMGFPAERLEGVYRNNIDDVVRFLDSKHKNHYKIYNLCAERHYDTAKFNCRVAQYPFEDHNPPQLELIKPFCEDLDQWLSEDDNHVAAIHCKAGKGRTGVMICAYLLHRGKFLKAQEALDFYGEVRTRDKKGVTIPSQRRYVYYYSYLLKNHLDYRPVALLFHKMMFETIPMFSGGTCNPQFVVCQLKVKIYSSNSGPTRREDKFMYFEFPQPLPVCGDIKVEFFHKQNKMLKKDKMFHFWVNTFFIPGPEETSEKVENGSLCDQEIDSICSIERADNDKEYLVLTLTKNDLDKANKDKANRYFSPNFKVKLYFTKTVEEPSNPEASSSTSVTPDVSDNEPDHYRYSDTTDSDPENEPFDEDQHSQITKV
UniProt P60484: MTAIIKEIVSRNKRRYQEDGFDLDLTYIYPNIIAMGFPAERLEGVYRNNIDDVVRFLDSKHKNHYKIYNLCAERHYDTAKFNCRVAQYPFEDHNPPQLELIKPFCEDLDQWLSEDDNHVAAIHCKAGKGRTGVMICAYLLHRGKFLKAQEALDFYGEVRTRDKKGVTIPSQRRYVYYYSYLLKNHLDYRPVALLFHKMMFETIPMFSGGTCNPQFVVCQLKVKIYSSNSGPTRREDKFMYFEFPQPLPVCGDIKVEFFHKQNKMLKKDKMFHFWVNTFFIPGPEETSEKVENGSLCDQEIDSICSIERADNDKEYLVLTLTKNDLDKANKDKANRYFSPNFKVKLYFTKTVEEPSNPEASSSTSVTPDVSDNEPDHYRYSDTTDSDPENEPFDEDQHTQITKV

Tests used:
[1] = target: endogenous PTEN of 3T3-L1 cells (mouse (endogenous in 3T3-L1)) (UniProt O08586); experiment: co-IP; endogenous proteins; 3T3-L1 cells differentiated for 8 days, lysed and prepared for immune precipitation; with and without insulin stimulation (interaction increased by insulin)
[2] = target: phosphatase and tensin homology containing (PTEN) lipid phosphatase, expression construct with C-terminal FLAG tag (UniProt P60484); experiment: condition: only with the PI3K inhibitor LY294002 (10 μM), after insulin stimulation; co-IP; 293T cells co-transfected with FLAG-tagged PTEN and ECSCR; insulin stimulation in the presence of the PI3K inhibitor LY294002 (10 μM)
[3] = target: phosphatase and tensin homology containing (PTEN) lipid phosphatase, expression construct with C-terminal FLAG tag (UniProt P60484); experiment: co-IP; 293T cells co-transfected with FLAG-tagged PTEN and full-length or cytoplasmic truncated ECSCR; anti-FLAG immune precipitation; lysis in 10 mM HEPES, 0.1% Triton X100 with protease and phosphatase inhibitors; cells unstimulated, stimulated with insulin (association increased) or isoproterenol (reduced), or given the PKA inhibitor cAMPS-Rp (100 μM, no block)

binding [1]	binding [2]	binding [3]	Binder
binds			endogenous ECSCR of 3T3-L1 cells (protein, UniProt Q3TZW0 19-214) QPTTTQTSQEILQKSSQVSLVSNQPVTPRSSTMDKQSLSLPDLMSFQPQKHTLGPGTGTPERSSSSSSSSSSRRGEASLDATPSPETTSLQTKKMTILLTILPTPTSESVLTVAAFGVISFIVILVVVVIILVSVVSLRFKCRKNKESEDPQKPGSSGLSESCSTANGEKDSITLISMRNINVNNSKGSMSAEKIL
	no binding	binds	Endothelial Cell Surface expressed Chemotaxis and apoptosis Regulator (ECSCR), full-length, human cDNA construct (protein, UniProt Q19T08 25-205) QPTMTQTSSSQGGLGGLSLTTEPVSSNPGYIPSSEANRPSHLSSTGTPGAGVPSSGRDGGTSRDTFQTVPPNSTTMSLSMREDATILPSPTSETVLTVAAFGVISFIVILVVVVIILVGVVSLRFKCRKSKESEDPQKPGSSGLSESCSTANGEKDSITLISMKNINMNNGKQSLSAEKVL
